# This is one part of the list. These are further read-outs of the screen, such as a control signal, another cell line or another target. No call is given for them. The list favours compounds with an active or inconclusive main result. Potencies come from curve fits of mixed quality, noted in brackets.
# Test: qHTS Assay to Find Inhibitors of Chronic Active B-Cell Receptor Signaling
# Settings: ABC-DLBCL IkBa-CBG/CBR reporter, luminescence ratio (green luciferase fused to IkBa over red control in TMD8 lymphoma cells), 4 h; measured here: CBR red luminescence, cell number
# How it was run: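 Compounds up to 46 uM were incubated four hours with TMD8 cells whose green CBG68 luciferase is fused to IkappaBalpha; red CBR luminescence normalised the signal, and concentration-effect curves were fitted to fusion, red and ratio data.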
row,SMILES,AC50
1,CN1CCCC(OC(=O)c2ccc(S(=O)(=O)N(C)C)cc2)C1 (stereo not drawn),"2.24 µM [falling, single point]"
2,O=[N+]([O-])c1cccc(-c2ccc(/C=N/NC(=S)NCc3ccco3)o2)c1,"3.98 µM [rising, full curve]"
3,COc1ccc(-c2oc(/N=C/N3CCCC3)c(C#N)c2-c2ccc(OC)cc2)cc1,"13 µM [rising, single point]"
4,COc1cccc(/C=N/NC(=O)C(=O)NCc2cccnc2)c1OC,"35.5 µM [rising, single point]"
5,O=C(/C=C/c1cccc([N+](=O)[O-])c1)N1CCN(Cc2ccccc2)CC1,"31.6 µM [falling, single point]"
6,Cc1ccc(C)c2[nH]c(=O)c(CN(Cc3ccc4c(c3)OCO4)Cc3nnnn3Cc3ccco3)cc12,"11.2 µM [falling, partial curve, poor fit]"
7,O=C(NCc1ccco1)c1cnn2c1NC(c1ccccc1)CC2C(F)(F)F (stereo not drawn),"4.47 µM [falling, single point]"
8,Cn1c(SCc2ccccc2)nnc1-c1cccs1,"35.5 µM [falling, single point]"
9,Cc1c(Cl)c([N+](=O)[O-])nn1CC(=O)NCCCN1CCOCC1,"0.2 µM [rising, full curve, poor fit]"
10,COc1ccc(OC)c(-c2c[n+](=O)c3c(n2[O-])CCCC3)c1,"7.94 µM [rising, partial curve, poor fit]"
11,COC(=O)c1ccccc1NC(=O)NC1CCC(C)CC1 (stereo not drawn),"7.08 µM [falling, partial curve, poor fit]"
12,COc1c(C(=O)Nc2c(C)n(C)n(-c3ccccc3)c2=O)ccc2ccccc12,"29.1 µM [rising, single point]"
13,CN(C)c1cccc(C(=O)Nc2nc3ccccc3[nH]2)c1,"3.16 µM [falling, full curve]"
14,CN(Cc1ccccc1)C(=O)COc1cc(=O)n(C)c2ccccc12,"23.1 µM [falling, single point]"
15,CCCCN(C)CC(O)Cn1cc(/C=C/C(=O)c2ccc(C)cc2)c2ccccc21 (stereo not drawn),"15.8 µM [falling, single point]"
16,CCN(CC)C(=O)c1cc2sc3ccccc3c2s1,"17.8 µM [falling, single point]"
17,O=C1NC(=O)C2(COC(c3ccccc3Cl)OC2)S1 (stereo not drawn),"23.1 µM [rising, partial curve, poor fit]"
18,CCOc1ccccc1-c1nc(-c2ccc(NC(=O)Cc3ccccc3OC)cc2)no1,"29.1 µM [falling, single point]"

# A draw from above in order of molecular weight, ascending:
row,SMILES,AC50
14,CN(Cc1ccccc1)C(=O)COc1cc(=O)n(C)c2ccccc12,"23.1 µM [falling, single point]"
7,O=C(NCc1ccco1)c1cnn2c1NC(c1ccccc1)CC2C(F)(F)F (stereo not drawn),"4.47 µM [falling, single point]"
3,COc1ccc(-c2oc(/N=C/N3CCCC3)c(C#N)c2-c2ccc(OC)cc2)cc1,"13 µM [rising, single point]"

# Reference: PubChem BioAssay AID493014 (National Center for Advancing Translational Sciences (NCATS), 2011)
